These are yes or no findings as the source states them, for the method shown. Binding seen in cells or lysates may run through a third protein. Binding calls can cover weak binding; strength is not graded here. Where a sequence is shown, tags or fusion partners need not be part of it.

For this experiment, the target named is Myc-tagged, full-length mouse Uba3 (mouse). The experiment is described as follows: GST pulldown from a mixture of 35S-labelled Myc-Uba3 and AppBP1.

B1: GST-SPATIAL long isoform fusion protein (other)
chain: LFLGNVYKGSLAPRRDEVTSPKAEPQPETKPENLPRSHGDVGLQKETVVPGIVDFELIHEELKTTKPQTSQPTPSAYRFGRLSHHSFFSRHHPQPQRVTHIQVTGREDLEHSLPLTTSFQLLQAPGVQPMDLTPSADIAGKPVCVVRDEFSLSALTQPTFLSRCLMGMPTISVPIGDPQSNRNPQLSTSDTWRKKLKDLASRVTVFTKEIQPKPDEVGVAQRMEPRKKRPS
notes: SPATIAL cDNA cloned into pGEx5X1, expressed in bacteria and held on glutathione-Sepharose beads; not shown: glutathione-S-transferase (GST) encoded by the pGEx5X1 expression vector
Regarding B1, the binding entry is “binds”.

These data come from patent publication US20070248589A1 (GOVERNMENT OF THE UNITED STATES OF AMERICA AS REPRESENTED …, published 2007).
